Measured values as given in PMC7170535.
Numbering of substitutions follows the chain as printed. Numbers in names are those of the source. Results are given in words; binding and its absence hold for the method and conditions named.

B1: recombinant inter-α-inhibitor heavy chain 1 (rHC1), wild type (protein, UniProt P19827 35-672)
chain: SKSSEKRQAVDTAVDGVFIRSLKVNCKVTSRFAHYVVTSQVVNTANEAREVAFDLEIPKTAFISDFAVTADGNAFIGDIKDKVTAWKQYRKAAISGENAGLVRASGRTMEQFTIHLTVNPQSKVTFQLTYEEVLKRNHMQYEIVIKVKPKQLVHHFEIDVDIFEPQGISKLDAQASFLPKELAAQTIKKSFSGKKGHVLFRPTVSQQQSCPTCSTSLLNGHFKVTYDVSRDKICDLLVANNHFAHFFAPQNLTNMNKNVVFVIDISGSMRGQKVKQTKEALLKILGDMQPGDYFDLVLFGTRVQSWKGSLVQASEANLQAAQDFVRGFSLDEATNLNGGLLRGIEILNQVQESLPELSNHASILIMLTDGDPTEGVTDRSQILKNVRNAIRGRFPLYNLGFGHNVDFNFLEVMSMENNGRAQRIYEDHDATQQLQGFYSQVAKPLLVDVDLQYPQDAVLALTQNHHKQYYEGSEIVVAGRIADNKQSSFKADVQAHGEGQEFSITCLVDEEEMKKLLRERGHMLENHVERLWAYLTIQELLAKRMKVDREERANLSSQALQMSLDYGFVTPLTSMSIRGMADQDGLKPTIDKPSEDSPPLEMLGPRRTFVLSALQPSPTHSSSNTQRLPDRVTGVDTD
B2: recombinant inter-α-inhibitor heavy chain 1 (rHC1), D298A MIDAS mutant (protein, UniProt P19827 35-672)
chain: B1 chain with D264A

Assays:
[1] = molecular target: recombinant inter-α-inhibitor heavy chain 1 (rHC1), wild type (human) (UniProt P19827); experiment: SAXS; WT rHC1 at 1.25, 2.5 and 5.0 mg/ml in HEPES-buffered saline pH 7.5 with 2.5 mM EDTA; both purified
[2] = molecular target: recombinant inter-α-inhibitor heavy chain 1 (rHC1), wild type (human) (UniProt P19827); experiment: SAXS; rHC1 proteins at 1.25, 2.5 and 5.0 mg/ml in HEPES-buffered saline pH 7.5 with 5 mM CaCl2; both purified
[3] = molecular target: recombinant inter-α-inhibitor heavy chain 1 (rHC1), wild type (human) (UniProt P19827); experiment: AUC; velocity AUC; 18 μM WT rHC1 in HEPES-buffered saline pH 7.5 with 2.5 mM EDTA; 20 °C, 40,000 rpm; both purified
[4] = molecular target: recombinant inter-α-inhibitor heavy chain 1 (rHC1), wild type (human) (UniProt P19827); experiment: AUC; equilibrium AUC; rHC1 at 4, 11 and 22 μM at 0 mM MgCl2 (2.5 mM EDTA); 20 °C; both purified
[5] = molecular target: recombinant inter-α-inhibitor heavy chain 1 (rHC1), D298A MIDAS mutant (human) (UniProt P19827); experiment: SAXS; rHC1 proteins at 1.25, 2.5 and 5.0 mg/ml in HEPES-buffered saline pH 7.5 with 5 mM MnCl2; both purified
[6] = molecular target: recombinant inter-α-inhibitor heavy chain 1 (rHC1), D298A MIDAS mutant (human) (UniProt P19827); experiment: SAXS; rHC1 proteins at 1.25, 2.5 and 5.0 mg/ml in HEPES-buffered saline pH 7.5 with 5 mM MgCl2; both purified

| Binder | binding [1] | binding [2] | binding [3] | binding [4] | binding [5] | binding [6] |
| --- | --- | --- | --- | --- | --- | --- |
| B1 | no binding (condition: with 2.5 mM EDTA) | no binding (condition: in 5 mM CaCl2) | no binding (condition: with 2.5 mM EDTA) | no binding (condition: at 0 mM MgCl2 (2.5 mM EDTA)) |  |  |
| B2 |  |  |  |  | no binding | no binding |
